Data source: PubChem BioAssay AID1259298 (Sanger Institute, 2017)

Screen: 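Kinome knock-downs lethal on their own or synergising with anchor drugs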 (primary screen)
Cell system: HT55 human colorectal cancer cell line
Reagent: siRNA pool against human genes
Conditions: anchor drug BYL719 1 µM, cetuximab 5 µg/ml or trametinib 10 nM, or DMSO vehicle alone
Measured: 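Replicate-averaged viability versus wells of non-targeting pool; knock-down-only robust z-score; per-drug synergy score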
Direction: robust z-score, knock-down alone: higher = more cells remaining; low means essential gene; viability vs control pool, no drug: higher = more viable cells; synergy score with BYL719 and synergy score with cetuximab and synergy score with trametinib: higher = stronger synthetic lethality with the drug
Call rule: 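Essential when the robust z-score for knock-down alone with DMSO is below -3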
Meaning of the calls: active = essential (knock-down alone); inactive = no change alone
This is an unselected part of 794 reagents. 20 of all reagents (2.5%) count as active. 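Calls rest only on the knock-down-alone score; drug synergy scores played no part in them.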 Viability is capped at 1. Not given: the amount of reagent, the time to read-out.

no.	Target gene	robust z-score, knock-down alone	viability vs control pool, no drug (fraction)	synergy score with BYL719	synergy score with cetuximab	synergy score with trametinib	Outcome
1	HIPK4 (GeneID 147746)	0.58	1	-0.16	-0.204	-0.0859	inactive
2	HUS1 (GeneID 3364)	-0.0179	0.953	-0.166	-0.0906	-0.00692	inactive
3	HUNK (GeneID 30811)	0.104	0.963	0.0647	0.0138	0.131	inactive
4	TEC (GeneID 7006)	0.58	1	-0.171	-0.178	-0.0876	inactive
5	TTK (GeneID 7272)	0.233	0.973	-0.112	0.0448	-0.00529	inactive
6	EPHA6 (GeneID 285220)	-1.43	0.843	-0.0367	0.0894	0.128	inactive
7	ASPM (GeneID 259266)	-0.548	0.912	-0.0722	-0.0518	0.0081	inactive
8	MAP3K1 (GeneID 4214)	0.58	1	-0.133	-0.0818	-0.0542	inactive
9	MPP1 (GeneID 4354)	0.58	1	-0.171	-0.211	0.12	inactive
10	LYN (GeneID 4067)	0.58	1	-0.272	-0.14	-0.0869	inactive
11	JAK1 (GeneID 3716)	0.371	0.984	-0.281	0.00108	-0.0185	inactive
12	TCF7L2 (GeneID 6934)	0.58	1	-0.268	-0.211	-0.162	inactive
13	HSPB8 (GeneID 26353)	-0.342	0.928	-0.179	-0.0556	0.00597	inactive
14	GCK (GeneID 2645)	0.452	0.99	-0.0824	0.0254	-0.0482	inactive
15	PDGFRL (GeneID 5157)	0.0429	0.958	-0.0886	-0.245	-0.0838	inactive
16	PKN3 (GeneID 29941)	0.485	0.993	-0.163	-0.217	0.0678	inactive
17	STK26 (GeneID 51765)	0.58	1	0.00744	-0.14	0.0211	inactive
18	PIK3R5 (GeneID 23533)	0.58	1	-0.272	0.022	-0.0165	inactive
19	JAK2 (GeneID 3717)	0.58	1	-0.252	-0.211	-0.21	inactive
20	GNAS (GeneID 2778)	-0.839	0.889	-0.0605	-0.0305	0.074	inactive
21	TRPM6 (GeneID 140803)	0.58	1	-0.224	-0.197	-0.162	inactive
22	PIM3 (GeneID 415116)	0.58	1	-0.11	-0.117	0.124	inactive
23	NME3 (GeneID 4832)	0.58	1	-0.0814	0.00344	0.0281	inactive
24	MAST1 (GeneID 22983)	0.58	1	-0.272	-0.107	-0.151	inactive
25	PKLR (GeneID 5313)	0.138	0.965	-0.257	-0.178	0.0237	inactive
26	CAMK2N1 (GeneID 55450)	-4.38	0.612	-0.191	-0.0121	-0.0634	active
27	MAP4K3 (GeneID 8491)	0.315	0.979	-0.0134	-0.142	0.139	inactive
28	GAK (GeneID 2580)	0.58	1	-0.161	0.00409	0.038	inactive
29	CASK (GeneID 8573)	0.58	1	-0.0233	-0.0146	0.139	inactive
30	PI4K2A (GeneID 55361)	0.58	1	-0.272	-0.211	-0.234	inactive
31	ATP23 (GeneID 91419)	0.58	1	-0.234	-0.133	-0.0121	inactive
32	CDK13 (GeneID 8621)	0.495	0.993	-0.185	-0.0148	0.0948	inactive
33	TESK2 (GeneID 10420)	0.58	1	-0.056	-0.0817	0.0606	inactive
34	MAPK15 (GeneID 225689)	0.58	1	-0.272	-0.0859	-0.0889	inactive
35	CSNK1G1 (GeneID 53944)	-0.55	0.912	-0.255	-0.128	0.0241	inactive
36	ROCK1 (GeneID 6093)	0.58	1	-0.2	-0.211	-0.145	inactive
37	FXR1 (GeneID 8087)	0.58	1	-0.145	-0.0752	0.0964	inactive
38	MAPK6 (GeneID 5597)	0.58	1	0.0088	-0.131	0.119	inactive
39	SRC (GeneID 6714)	0.58	1	-0.246	-0.202	-0.0381	inactive
40	STK33 (GeneID 65975)	0.58	1	-0.0136	-0.0178	-0.00921	inactive
41	RIPK3 (GeneID 11035)	0.58	1	-0.0815	-0.205	-0.0603	inactive
42	DYRK1B (GeneID 9149)	0.58	1	-0.169	-0.12	0.0307	inactive
43	BRD4 (GeneID 23476)	-0.812	0.891	-0.107	-0.297	0.0108	inactive
44	STKLD1 (GeneID 169436)	-0.528	0.913	-0.0827	-0.0964	0.0504	inactive
45	GSK3A (GeneID 2931)	-0.0837	0.948	-0.108	0.0373	0.012	inactive
46	CLK4 (GeneID 57396)	0.58	1	-0.0981	-0.0629	0.0932	inactive
47	STK10 (GeneID 6793)	0.58	1	-0.272	-0.211	-0.0723	inactive
48	NR2F2 (GeneID 7026)	0.58	1	-0.127	-0.0477	0.0365	inactive
49	IDH2 (GeneID 3418)	-1.37	0.847	-0.22	-0.027	-0.0112	inactive
50	ALPK3 (GeneID 57538)	0.373	0.984	-0.0725	-0.0461	-0.0385	inactive
51	KRAS (GeneID 3845)	0.58	1	0.0014	0.0516	0.065	inactive
52	MAST3 (GeneID 23031)	0.58	1	-0.233	-0.000615	0.0506	inactive
53	RAF1 (GeneID 5894)	-1.36	0.848	-0.113	-0.139	0.0161	inactive
54	CKMT1B (GeneID 1159)	0.487	0.993	-0.0512	-0.157	-0.0171	inactive
55	GRK6 (GeneID 2870)	0.58	1	-0.149	-0.183	0.0476	inactive
56	DYRK1A (GeneID 1859)	0.58	1	-0.272	-0.0513	0.0294	inactive
57	CDK11A (GeneID 728642)	-5.04	0.56	-0.222	-0.26	-0.196	active
58	TP53 (GeneID 7157)	-0.723	0.898	-0.0644	-0.0074	0.0301	inactive
59	CDKN1C (GeneID 1028)	0.419	0.987	-0.0869	-0.174	-0.0461	inactive
60	CLK3 (GeneID 1198)	-0.561	0.911	-0.0845	-0.0047	-0.0741	inactive
61	EFNB3 (GeneID 1949)	0.58	1	-0.272	-0.0126	0.0679	inactive
62	LMBR1 (GeneID 64327)	0.58	1	-0.203	0.0642	-0.139	inactive
63	PRKACG (GeneID 5568)	0.58	1	-0.115	-0.167	-0.0296	inactive

Called active, among the entries above:
Target gene	robust z-score, knock-down alone	viability vs control pool, no drug (fraction)	synergy score with BYL719	synergy score with cetuximab	synergy score with trametinib	Outcome
CAMK2N1 (GeneID 55450)	-4.38	0.612	-0.191	-0.0121	-0.0634	active
CDK11A (GeneID 728642)	-5.04	0.56	-0.222	-0.26	-0.196	active
